Laboratory results: paper PMC6502810
Results are given in words; binding and its absence hold for the method and conditions named. In cells and extracts the contact can be indirect. Here binding means that the protein was enriched with, or labelled near, the bait; the list need not be complete.

Tests used:
[1] = molecular target: N-terminally FLAG tagged CBFB (human) (UniProt Q13951); assay: affinity purification with mass spectrometry; FLAG pulldown from stable CBFB KO MCF10A cells (about 100 million); NET buffer (50 mM Tris pH 7.5, 250 mM NaCl, 5 mM EDTA, 0.1% NP40, 10 µg/ml RNase A); anti-FLAG-M2 affinity gel overnight at 4 °C; eluted with 3x FLAG peptide; enriched silver-stained bands (vs. empty vector) cut out for mass spectrometry
[2] = molecular target: C-terminally FLAG tagged CBFB (human) (UniProt Q13951); assay: as above

Substance: hnRNPK (from UniProt P61978 1-463)
- binding [1]: binds
- binding [2]: binds
